Data reported in the supplement of paper PMC12067093, “Discovery and optimisation of a covalent ligand for TRIM25 and its application to targeted protein ubiquitination” (Chemical Science, 2025).
The list shows a part of the results.

By UniProt entry, the sequences of proteins in these tests, tags left out. Where a name states a change or a piece, a line headed by the entry shows the natural chain unless it says otherwise.
UniProt P56937: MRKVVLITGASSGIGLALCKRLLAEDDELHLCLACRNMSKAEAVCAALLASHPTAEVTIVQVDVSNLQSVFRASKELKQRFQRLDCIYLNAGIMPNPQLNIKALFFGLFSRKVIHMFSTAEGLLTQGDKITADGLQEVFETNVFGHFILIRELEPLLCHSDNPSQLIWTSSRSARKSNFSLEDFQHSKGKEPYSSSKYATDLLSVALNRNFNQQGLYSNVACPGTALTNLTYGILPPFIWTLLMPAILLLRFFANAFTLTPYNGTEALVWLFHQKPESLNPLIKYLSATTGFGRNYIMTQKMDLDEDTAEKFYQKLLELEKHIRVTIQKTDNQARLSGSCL
UniProt Q9NZL4: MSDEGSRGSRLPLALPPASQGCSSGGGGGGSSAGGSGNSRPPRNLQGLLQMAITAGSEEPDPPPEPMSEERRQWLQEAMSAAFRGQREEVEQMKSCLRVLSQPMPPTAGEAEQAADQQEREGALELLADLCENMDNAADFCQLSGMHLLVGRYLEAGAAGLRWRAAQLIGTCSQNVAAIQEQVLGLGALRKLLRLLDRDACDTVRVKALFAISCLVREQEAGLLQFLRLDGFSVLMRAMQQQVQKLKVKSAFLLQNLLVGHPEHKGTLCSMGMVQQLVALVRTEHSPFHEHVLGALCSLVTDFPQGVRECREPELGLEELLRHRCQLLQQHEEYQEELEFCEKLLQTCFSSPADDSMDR
UniProt Q9NWY4: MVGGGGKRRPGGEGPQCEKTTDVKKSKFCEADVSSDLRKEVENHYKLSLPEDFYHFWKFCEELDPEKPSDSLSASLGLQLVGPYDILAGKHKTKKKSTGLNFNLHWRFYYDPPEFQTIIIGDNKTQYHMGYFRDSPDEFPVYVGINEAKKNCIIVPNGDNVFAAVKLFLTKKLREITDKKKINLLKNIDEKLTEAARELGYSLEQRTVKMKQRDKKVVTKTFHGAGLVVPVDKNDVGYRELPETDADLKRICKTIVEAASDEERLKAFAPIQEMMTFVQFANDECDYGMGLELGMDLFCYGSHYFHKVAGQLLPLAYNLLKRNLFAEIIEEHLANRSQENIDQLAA
UniProt Q9BUJ2: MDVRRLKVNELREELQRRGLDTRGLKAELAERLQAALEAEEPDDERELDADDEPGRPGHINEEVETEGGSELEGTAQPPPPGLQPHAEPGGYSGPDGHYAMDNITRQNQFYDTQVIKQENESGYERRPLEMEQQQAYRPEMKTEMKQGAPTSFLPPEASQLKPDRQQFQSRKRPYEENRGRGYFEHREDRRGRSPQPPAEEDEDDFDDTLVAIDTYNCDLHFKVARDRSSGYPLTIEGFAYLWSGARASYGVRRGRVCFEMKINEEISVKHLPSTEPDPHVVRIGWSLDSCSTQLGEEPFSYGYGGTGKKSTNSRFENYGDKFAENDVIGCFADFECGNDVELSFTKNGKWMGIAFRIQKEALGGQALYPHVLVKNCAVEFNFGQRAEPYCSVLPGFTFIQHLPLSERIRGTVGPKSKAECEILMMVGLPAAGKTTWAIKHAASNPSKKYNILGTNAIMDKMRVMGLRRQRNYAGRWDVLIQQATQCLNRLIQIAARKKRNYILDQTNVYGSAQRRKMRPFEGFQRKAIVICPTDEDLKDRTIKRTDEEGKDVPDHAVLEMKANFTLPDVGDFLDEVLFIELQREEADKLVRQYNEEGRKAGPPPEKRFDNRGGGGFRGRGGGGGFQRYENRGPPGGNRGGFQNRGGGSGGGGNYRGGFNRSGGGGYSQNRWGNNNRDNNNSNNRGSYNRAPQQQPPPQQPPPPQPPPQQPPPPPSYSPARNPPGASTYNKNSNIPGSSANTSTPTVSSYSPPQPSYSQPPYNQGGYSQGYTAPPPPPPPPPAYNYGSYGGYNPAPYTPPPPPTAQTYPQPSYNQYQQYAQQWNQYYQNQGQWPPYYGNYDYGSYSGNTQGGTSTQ
UniProt Q99729: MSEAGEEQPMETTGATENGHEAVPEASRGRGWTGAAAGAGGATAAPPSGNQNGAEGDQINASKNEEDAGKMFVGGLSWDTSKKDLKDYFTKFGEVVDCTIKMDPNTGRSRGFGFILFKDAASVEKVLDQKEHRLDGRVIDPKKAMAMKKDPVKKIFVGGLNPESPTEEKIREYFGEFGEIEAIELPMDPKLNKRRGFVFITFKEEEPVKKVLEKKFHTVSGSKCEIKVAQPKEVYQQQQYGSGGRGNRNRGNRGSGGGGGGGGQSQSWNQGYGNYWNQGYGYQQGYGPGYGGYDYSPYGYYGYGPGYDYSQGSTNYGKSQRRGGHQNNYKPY
UniProt Q00613: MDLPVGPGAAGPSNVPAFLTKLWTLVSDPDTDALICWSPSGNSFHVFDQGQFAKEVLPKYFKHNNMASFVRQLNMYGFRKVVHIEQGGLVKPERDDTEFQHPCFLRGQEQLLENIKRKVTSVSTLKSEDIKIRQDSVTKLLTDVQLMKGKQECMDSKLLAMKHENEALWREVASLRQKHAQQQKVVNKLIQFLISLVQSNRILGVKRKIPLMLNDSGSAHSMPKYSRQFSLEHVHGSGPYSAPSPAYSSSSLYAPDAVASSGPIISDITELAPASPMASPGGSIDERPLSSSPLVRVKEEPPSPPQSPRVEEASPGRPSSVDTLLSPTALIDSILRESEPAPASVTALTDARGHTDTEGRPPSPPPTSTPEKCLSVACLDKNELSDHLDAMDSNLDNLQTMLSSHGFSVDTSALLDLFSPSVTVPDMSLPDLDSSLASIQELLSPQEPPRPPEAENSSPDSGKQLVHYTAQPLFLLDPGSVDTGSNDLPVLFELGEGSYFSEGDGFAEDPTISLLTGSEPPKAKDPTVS
UniProt P51991: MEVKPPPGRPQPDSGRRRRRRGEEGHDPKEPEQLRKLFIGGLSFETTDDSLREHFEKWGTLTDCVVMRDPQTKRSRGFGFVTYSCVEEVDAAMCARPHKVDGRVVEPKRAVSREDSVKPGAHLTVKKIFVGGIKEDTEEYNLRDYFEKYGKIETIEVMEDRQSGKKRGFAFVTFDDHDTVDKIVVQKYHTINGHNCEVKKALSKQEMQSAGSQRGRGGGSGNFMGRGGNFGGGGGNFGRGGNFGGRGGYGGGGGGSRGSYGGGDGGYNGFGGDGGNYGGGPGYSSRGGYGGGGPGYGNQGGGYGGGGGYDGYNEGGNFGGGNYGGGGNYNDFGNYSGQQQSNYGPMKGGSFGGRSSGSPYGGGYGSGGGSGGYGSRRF
UniProt Q6YN16: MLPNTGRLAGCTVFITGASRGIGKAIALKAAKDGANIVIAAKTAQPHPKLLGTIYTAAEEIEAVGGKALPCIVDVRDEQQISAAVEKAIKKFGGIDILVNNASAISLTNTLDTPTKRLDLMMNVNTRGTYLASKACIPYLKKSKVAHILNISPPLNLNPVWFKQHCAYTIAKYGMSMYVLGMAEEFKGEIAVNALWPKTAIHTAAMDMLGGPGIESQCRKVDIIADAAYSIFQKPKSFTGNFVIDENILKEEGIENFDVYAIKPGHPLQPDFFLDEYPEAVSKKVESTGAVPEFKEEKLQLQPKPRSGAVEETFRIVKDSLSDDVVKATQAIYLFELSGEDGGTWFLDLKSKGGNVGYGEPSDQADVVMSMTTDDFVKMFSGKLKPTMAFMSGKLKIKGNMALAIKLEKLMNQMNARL
UniProt Q8NBQ5: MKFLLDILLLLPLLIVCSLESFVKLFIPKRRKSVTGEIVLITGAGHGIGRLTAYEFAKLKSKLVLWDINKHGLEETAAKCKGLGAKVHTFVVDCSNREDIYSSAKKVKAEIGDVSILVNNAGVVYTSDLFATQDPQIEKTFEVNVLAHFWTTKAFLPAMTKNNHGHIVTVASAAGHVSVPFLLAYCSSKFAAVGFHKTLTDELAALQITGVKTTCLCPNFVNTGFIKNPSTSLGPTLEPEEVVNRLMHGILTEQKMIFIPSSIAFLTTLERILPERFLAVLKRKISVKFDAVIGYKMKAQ
UniProt P11021: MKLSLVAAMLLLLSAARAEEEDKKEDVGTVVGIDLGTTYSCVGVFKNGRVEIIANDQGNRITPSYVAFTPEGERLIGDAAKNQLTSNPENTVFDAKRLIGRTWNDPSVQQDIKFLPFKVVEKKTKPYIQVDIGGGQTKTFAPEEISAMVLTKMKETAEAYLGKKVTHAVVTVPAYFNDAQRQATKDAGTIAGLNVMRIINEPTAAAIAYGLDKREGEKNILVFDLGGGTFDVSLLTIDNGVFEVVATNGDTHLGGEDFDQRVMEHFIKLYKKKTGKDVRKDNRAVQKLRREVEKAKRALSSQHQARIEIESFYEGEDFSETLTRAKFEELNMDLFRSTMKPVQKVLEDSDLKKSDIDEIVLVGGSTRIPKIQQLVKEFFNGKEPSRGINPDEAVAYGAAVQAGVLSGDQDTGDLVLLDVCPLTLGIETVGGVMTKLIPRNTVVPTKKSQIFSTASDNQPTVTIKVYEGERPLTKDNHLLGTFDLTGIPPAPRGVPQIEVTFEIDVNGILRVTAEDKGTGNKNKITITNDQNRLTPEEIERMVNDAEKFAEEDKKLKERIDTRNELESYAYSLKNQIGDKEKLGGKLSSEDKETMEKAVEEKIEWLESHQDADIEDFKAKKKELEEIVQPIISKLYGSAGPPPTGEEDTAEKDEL
UniProt O43719: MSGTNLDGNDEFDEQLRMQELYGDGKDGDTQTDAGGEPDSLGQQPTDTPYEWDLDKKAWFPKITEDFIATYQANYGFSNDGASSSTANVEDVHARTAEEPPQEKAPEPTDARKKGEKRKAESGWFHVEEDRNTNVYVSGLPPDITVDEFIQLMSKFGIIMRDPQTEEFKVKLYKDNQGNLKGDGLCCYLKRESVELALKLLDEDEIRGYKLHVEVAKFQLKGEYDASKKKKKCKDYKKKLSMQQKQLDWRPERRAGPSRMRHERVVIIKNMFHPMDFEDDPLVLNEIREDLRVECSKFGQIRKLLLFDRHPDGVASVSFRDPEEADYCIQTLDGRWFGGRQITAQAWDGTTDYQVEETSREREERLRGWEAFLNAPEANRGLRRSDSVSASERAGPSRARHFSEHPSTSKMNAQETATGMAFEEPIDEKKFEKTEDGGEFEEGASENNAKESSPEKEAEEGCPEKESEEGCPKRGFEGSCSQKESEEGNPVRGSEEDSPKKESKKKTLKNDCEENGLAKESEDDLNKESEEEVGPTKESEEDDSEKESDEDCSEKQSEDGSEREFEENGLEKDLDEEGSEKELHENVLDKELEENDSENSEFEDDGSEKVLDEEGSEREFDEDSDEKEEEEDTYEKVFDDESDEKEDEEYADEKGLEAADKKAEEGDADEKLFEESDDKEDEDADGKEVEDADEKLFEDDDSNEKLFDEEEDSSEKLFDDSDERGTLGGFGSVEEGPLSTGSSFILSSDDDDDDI
UniProt P10809, whole entry, looked up: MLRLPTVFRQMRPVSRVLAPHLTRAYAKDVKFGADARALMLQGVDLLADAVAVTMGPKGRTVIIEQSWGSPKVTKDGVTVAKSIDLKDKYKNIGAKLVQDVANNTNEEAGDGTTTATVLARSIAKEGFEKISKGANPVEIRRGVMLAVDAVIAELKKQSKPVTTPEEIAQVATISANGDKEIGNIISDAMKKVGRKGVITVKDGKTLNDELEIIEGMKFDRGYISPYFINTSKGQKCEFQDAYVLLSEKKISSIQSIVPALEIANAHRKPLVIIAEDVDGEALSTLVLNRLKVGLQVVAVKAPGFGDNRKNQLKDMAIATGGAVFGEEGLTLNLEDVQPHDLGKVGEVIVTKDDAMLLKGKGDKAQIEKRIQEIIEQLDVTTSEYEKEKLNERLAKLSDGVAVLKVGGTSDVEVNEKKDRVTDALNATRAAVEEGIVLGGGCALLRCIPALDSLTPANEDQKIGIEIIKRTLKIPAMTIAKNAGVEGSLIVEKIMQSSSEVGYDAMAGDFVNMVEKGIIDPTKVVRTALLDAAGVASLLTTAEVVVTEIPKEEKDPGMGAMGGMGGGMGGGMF
UniProt Q0VDF9: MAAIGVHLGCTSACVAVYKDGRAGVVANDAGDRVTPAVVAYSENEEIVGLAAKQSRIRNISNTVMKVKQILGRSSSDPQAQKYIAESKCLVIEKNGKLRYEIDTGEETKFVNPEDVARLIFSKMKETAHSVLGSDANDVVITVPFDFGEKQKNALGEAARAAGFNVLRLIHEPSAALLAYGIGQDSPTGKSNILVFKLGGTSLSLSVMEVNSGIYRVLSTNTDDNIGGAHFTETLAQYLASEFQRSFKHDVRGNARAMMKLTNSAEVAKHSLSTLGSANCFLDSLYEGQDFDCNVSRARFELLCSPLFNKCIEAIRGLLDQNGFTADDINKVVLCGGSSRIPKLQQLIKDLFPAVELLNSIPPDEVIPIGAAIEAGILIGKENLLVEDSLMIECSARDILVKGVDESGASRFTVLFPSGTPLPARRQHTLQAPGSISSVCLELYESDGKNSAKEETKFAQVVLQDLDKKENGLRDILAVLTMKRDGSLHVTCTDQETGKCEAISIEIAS

Compound: Cc1cc(ccc1-c1ccccc1)C(=O)N1CCCN(CC1)C(=O)CCl [compound 10]
Assay: probe-labelled cysteine peptide fold change vs DMSO (competition) (log2 fold change); higher = less target engagement (more negative = stronger competition)
Settings: THP-1, incubation time: 4 h
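Also: competitive profiling in live THP-1 cells: cysteine peptides tagged with an iodoacetamide desthiobiotin (IA-DTB) probe, intensity after compound treatment relative to DMSO-treated cells.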

Target: HSD17B7_P56937_32_LLAEDDELHLCLACR (UniProt P56937)
- probe-labelled cysteine peptide fold change (10 µM): 0.0942
- probe-labelled cysteine peptide fold change (50 µM): 0.0496

Target: HSPBP1_Q9NZL4_269_GTLCSMGMVQQLVALVR (UniProt Q9NZL4)
- probe-labelled cysteine peptide fold change (10 µM): -0.0734
- probe-labelled cysteine peptide fold change (50 µM): 0.228

Target: HPF1_Q9NWY4_60_FCEELDPEK (UniProt Q9NWY4)
- probe-labelled cysteine peptide fold change (10 µM): 0.38
- probe-labelled cysteine peptide fold change (50 µM): 0.515

Target: HNRNPUL1_Q9BUJ2_391_AEPYCSVLPGFTFIQHLPLSER (UniProt Q9BUJ2)
- probe-labelled cysteine peptide fold change (10 µM): -0.1
- probe-labelled cysteine peptide fold change (50 µM): -0.129

Target: HNRNPAB_Q99729_224_KFHTVSGSKCEIK (UniProt Q99729)
- probe-labelled cysteine peptide fold change (10 µM): -0.175
- probe-labelled cysteine peptide fold change (50 µM): -0.448

Target: HSF1_Q00613_103_DDTEFQHPCFLR (UniProt Q00613)
- probe-labelled cysteine peptide fold change (10 µM): -0.18
- probe-labelled cysteine peptide fold change (50 µM): -0.0287

Target: HNRNPA3_P51991_85_GFGFVTYSCVEEVDAAMCARPHK (UniProt P51991)
- probe-labelled cysteine peptide fold change (10 µM): -0.0643
- probe-labelled cysteine peptide fold change (50 µM): -0.239

Target: HSDL2_Q6YN16_136_ACIPYLK (UniProt Q6YN16)
- probe-labelled cysteine peptide fold change (10 µM): -0.159
- probe-labelled cysteine peptide fold change (50 µM): -0.0627

Target: HSD17B11_Q8NBQ5_94_VHTFVVDCSNREDIYSSAK (UniProt Q8NBQ5)
- probe-labelled cysteine peptide fold change (10 µM): -0.0284
- probe-labelled cysteine peptide fold change (50 µM): 0.121

Target: HUS1_O60921_253_ALCNIVNNK (UniProt O60921)
- probe-labelled cysteine peptide fold change (10 µM): -0.05
- probe-labelled cysteine peptide fold change (50 µM): -0.0811

Target: HSPA5_P11021_41_EDVGTVVGIDLGTTYSCVGVFK (UniProt P11021)
- probe-labelled cysteine peptide fold change (10 µM): 0.237
- probe-labelled cysteine peptide fold change (50 µM): 0.632

Target: HTATSF1_O43719_328_DPEEADYCIQTLDGR (UniProt O43719)
- probe-labelled cysteine peptide fold change (10 µM): 0.128
- probe-labelled cysteine peptide fold change (50 µM): 0.314

Target: HSPD1_P10809_237_CEFQDAYVLLSEKK (UniProt P10809)
- probe-labelled cysteine peptide fold change (10 µM): -0.239
- probe-labelled cysteine peptide fold change (50 µM): -0.452

Target: HSPA14_Q0VDF9_394_ENLLVEDSLMIECSAR (UniProt Q0VDF9)
- probe-labelled cysteine peptide fold change (10 µM): -0.517
- probe-labelled cysteine peptide fold change (50 µM): 0.513
